# Reference: patent US20140228318A1, “Curcumin formulations and methods for making such formulations” (Sanford Research/USD, priority 2010, published 2014)
# At least one compound was matched to its structure with a doubt left.
# Assays:
# [1] = test system: C4-2 and DU145 prostate cancer cells; assay: Phase contrast microscopy of treated prostate cancer cells; format: cell-based; conditions: 20 μM, 48 hours
# [2] = In vitro stability of CD-CUR inclusion complexes in physiological buffer; format: physicochemical; conditions: 72 hrs, physiological pH 7.4
structure (smiles),measurement,setting,value
"COc1cc(/C=C/C(=O)CC(=O)/C=C/c2ccc(O)c(OC)c2)ccc1O [CUR, bis(4-hydroxy-3-methoxyphenyl)-1,6-diene-3,5-dione]",cell number and morphology (phase contrast microscopy),[1],moderate decrease in cell number
same,CUR precipitated,[2],~100%
